Results published in paper PMC10651984.
Results are given in words; binding and its absence hold for the method and conditions named. In cells and extracts the contact can be indirect. Some results given as binding are weak or reduced against the parent protein; the word gives no strength.

Biological target: cyclin-dependent protein kinase 5 (Cdk5) (rat (endogenous in primary neurons)) (UniProt Q03114)
Assay: co-IP; in neurons; RIPA lysate with protease inhibitors, antibody overnight at 4°C, protein G plus/protein A-agarose 3 h at 4°C, washed thrice, immunoblot; which protein was precipitated is not told

B1: Chromosome 9 open reading frame 72 (C9orf72) protein (protein, UniProt Q66HC3 1-481)
chain: MSTICPPPSPAVAKTEIALSGESPLLAATFAYWDNILGPRVRHIWAPKTDQVLLSDGEITFLANHTLNGEILRNAESGAIDVKFFVLSEKGVIIVSLIFDGNWNGDRSTYGLSIILPQTELSFYLPLHRVCVDRLTHIIRKGRIWMHKERQENVQKIVLEGTERMEDQGQSIIPMLTGEVIPVMELLASMRSHSVPEDLDIADTVLNDDDIGDSCHEGFLLNAISSHLQTCGCSVVVGSSAEKVNKIVRTLCLFLTPAERKCSRLCEAESSFKYESGLFVQGLLKDATGSFVLPFRQVMYAPYPTTHIDVDVNTVKQMPPCHEHIYNQRRYMRSELTAFWRATSEEDMAQDTIIYTDESFTPDLNIFQDVLHRDTLVKAFLDQVFHLKPGLSLRSTFLAQFLLILHRKALTLIKYIEDDTQKGKKPFKSLRNLKIDLDLTAEGDLNIIMALAEKIKPGLHSFIFGRPFYTSVQERDVLMTF
With B1 the binding was “binds”.
